In this assay the test system is L1210 leukemia ip in BDF1 mice, survival T/C. Description: NCI In Vivo Anticancer Drug Screen. Data for tumor model L1210 Leukemia (intraperitoneal) in B6D2F1 (BDF1) mice. The following applies: higher T/C = longer survival.
Where [1] appears, read: T/C endpoint: mean survival time, dose: 80.0 mg/kg/injection, schedule: Q01DX001 (ip), vehicle: saline.
Setting [2] is: T/C endpoint: mean survival time, dose: 100.0 mg/kg/injection, schedule: Q01DX001 (ip), vehicle: saline.
Setting [3] is: T/C endpoint: mean survival time, dose: 200.0 mg/kg/injection, schedule: Q01DX001 (ip), vehicle: saline.
Setting [4] is: T/C endpoint: mean survival time, dose: 400.0 mg/kg/injection, schedule: Q01DX001 (ip), vehicle: saline.
Where [5] appears, read: T/C endpoint: mean survival time, dose: 200.0 mg/kg/injection, schedule: Q04DX002 (ip), vehicle: Klucel (hydroxypropylcellulose) (HPC).
Setting [6] is: T/C endpoint: mean survival time, dose: 400.0 mg/kg/injection, schedule: Q04DX002 (ip), vehicle: Klucel (hydroxypropylcellulose) (HPC).
[7] abbreviates: T/C endpoint: mean survival time, dose: 100.0 mg/kg/injection, schedule: Q01DX009 (ip), vehicle: saline with Tween-80.
Where [8] appears, read: T/C endpoint: mean survival time, dose: 200.0 mg/kg/injection, schedule: Q01DX009 (ip), vehicle: saline with Tween-80.
The mark [9] stands for this setting: T/C endpoint: mean survival time, dose: 400.0 mg/kg/injection, schedule: Q01DX009 (ip), vehicle: saline with Tween-80.

SMILES strings stand for the structures. The list shows only some results of the screen, not a fair sample: it is rich in T/C values a quarter to a half above the control, in often repeated tests (any T/C) and in doses without a T/C. Further doses and runs are listed elsewhere. T/C: endpoint of the treated group in % of that of the vehicle group. Some doses have a count of surviving animals in place of a T/C: the source files T/C as zero there, which appears to mark a toxic dose or a test without result, not a measured value. Some survivor counts are full or nearly so, which does not show that the dose was tolerated: survival well below the control is almost never listed, so the zero probably covers shortened survival too. Survivors were counted at the toxicity check, usually on the fifth day, unless a day is given; later deaths do not show. Schedule codes are those of the source, read here as Q, the interval in days (D) or hours (H), X, the number of doses. Some entries were tested several times; the values are given in rising order. Some schedule codes hold Z or #, which are not explained here. For survival time, this PubChem deposit counts one and a half times the control or more as active, and values a quarter to a half above the control carry no call in these data; other NCI protocols may use other cut-offs.

On to `Cn1cc(C2=CC(=O)C=CC2=O)c2ccccc21`, for which the survivor count is 2 of 4 (T/C endpoint: mean survival time, dose: 50.0 mg/kg/injection, schedule: Q01DX001 (ip), vehicle: saline); 0 of 4 under setting [1]; 0 of 4 under setting [2]; 0 of 4 under setting [3]; 0 of 4 under setting [4].

On to `CC1(C)CCCC/C1=N\NC(N)=O`, for which the survivor count (T/C endpoint: mean survival time, dose: 300.0 mg/kg/injection, schedule: Q04DX003 (ip), vehicle: saline sonified) is recorded as 0 of 6.

Regarding `Nc1nc2nc(CC(=O)C(=O)O)c(=O)[nH]c2c(=O)[nH]1`, the survivor count (T/C endpoint: mean survival time, dose: 25.0 mg/kg/injection, schedule: Q01DX009 (ip), vehicle: saline) is on record as 4 of 6; the survivor count (T/C endpoint: mean survival time, dose: 100.0 mg/kg/injection, schedule: Q01DX009 (ip), vehicle: saline) is given as 0 of 6; the survivor count (T/C endpoint: mean survival time, dose: 200.0 mg/kg/injection, schedule: Q04DX003 (ip), vehicle: saline) was 2 of 6; the survivor count (T/C endpoint: mean survival time, dose: 400.0 mg/kg/injection, schedule: Q04DX003 (ip), vehicle: saline) is on record as 0 of 6.

Turning to `C[N+](C)(CCc1ccccc1)CC(O)COc1ccccc1` (stereo not drawn), the survivor count reads like this: (T/C endpoint: mean survival time, dose: 37.5 mg/kg/injection, schedule: Q04DX003 (ip), vehicle: Klucel (hydroxypropylcellulose) (HPC)) 3 of 6; (T/C endpoint: mean survival time, dose: 75.0 mg/kg/injection, schedule: Q04DX003 (ip), vehicle: Klucel (hydroxypropylcellulose) (HPC)) 0 of 6.

Take `CC(=[N-])CC(C)=O.CC(=[N-])CC(C)=O.[Cu+2]`: the survivor count reads like this: (T/C endpoint: mean survival time, dose: 25.0 mg/kg/injection, schedule: Q04DX003 (ip), vehicle: saline with Tween-80) 6 of 6; (T/C endpoint: mean survival time, dose: 100.0 mg/kg/injection, schedule: Q04DX003 (ip), vehicle: saline with Tween-80) 1 of 6; (T/C endpoint: mean survival time, dose: 200.0 mg/kg/injection, schedule: Q04DX003 (ip), vehicle: saline with Tween-80) 0 of 6; (T/C endpoint: mean survival time, dose: 400.0 mg/kg/injection, schedule: Q04DX003 (ip), vehicle: saline with Tween-80) 0 of 6.

In the case of `CCCCCCCCCCSS(=O)(=O)O`, the survivor count (T/C endpoint: mean survival time, dose: 200.0 mg/kg/injection, schedule: Q01DX001 (ip), vehicle: other) is recorded as 6 of 6.

Take `CCCCCCC[As](=O)(O)CCCCCCC`: the survivor count under setting [4] is recorded as 1 of 4.

Consider `Cc1cc[n+](CCCCCCCCCCO)cc1C`, for which the survivor count is 0 of 6 (T/C endpoint: mean survival time, dose: 175.0 mg/kg/injection, schedule: Q01DX001 (ip), vehicle: saline) and 0 of 6 (T/C endpoint: mean survival time, dose: 350.0 mg/kg/injection, schedule: Q01DX001 (ip), vehicle: saline).

Turning to `Nc1cc(C(=O)Nc2ccc(C3=NCC(O)CN3)cc2)ccc1C(=O)Nc1ccc(C2=NCC(O)CN2)cc1` (stereo not drawn), the survivor count runs as follows: (T/C endpoint: mean survival time, dose: 1.25 mg/kg/injection, schedule: Q01DX Z (ip), vehicle: carboxymethylcellulose (CMC)) 0 of 6; (T/C endpoint: mean survival time, dose: 2.5 mg/kg/injection, schedule: Q01DX Z (ip), vehicle: carboxymethylcellulose (CMC)) 1 of 6; (T/C endpoint: mean survival time, dose: 5.0 mg/kg/injection, schedule: Q01DX Z (ip), vehicle: carboxymethylcellulose (CMC)) 0 of 6; (T/C endpoint: mean survival time, dose: 10.0 mg/kg/injection, schedule: Q01DX Z (ip), vehicle: carboxymethylcellulose (CMC)) 2 of 6.

`CN(C)c1ncnc2c1c(Br)cn2C1OC(CO)C(O)C1O` (stereo not drawn): the survivor count under setting [1] was 0 of 4.

For `C=CC(OC)OC`, the survivor count (T/C endpoint: mean survival time, dose: 100.0 mg/kg/injection, schedule: Q04DX003 (ip), vehicle: saline) is 3 of 6.

In the case of `CCCCCCCCCCCCC/C=C\C(=O)N(CCCCN(C)C)CCCCN(C)C`, the survivor count (T/C endpoint: mean survival time, dose: 12.0 mg/kg/injection, schedule: Q01DX009 (ip), vehicle: carboxymethylcellulose (CMC)) is reported as 1 of 6.

As for `O=C1C=CC(=O)C2C1C1(Cl)CC2(Cl)C(Cl)=C1Cl` (stereo not drawn), the survivor count was 3 of 3 (T/C endpoint: mean survival time, dose: 50.0 mg/kg/injection, schedule: Q04DX002 (ip), vehicle: Klucel (hydroxypropylcellulose) (HPC)); 0 of 3 (T/C endpoint: mean survival time, dose: 100.0 mg/kg/injection, schedule: Q04DX002 (ip), vehicle: Klucel (hydroxypropylcellulose) (HPC)); 0 of 3 under setting [5]; 0 of 3 under setting [6].

Take `c1ccc(-c2csc3[n+]2CCN3)cc1`: the survivor count is, setting by setting: under setting [2], 0 of 4; under setting [3], 0 of 4; under setting [4], 0 of 4.

For the compound `c1cc[c]([Pb]([c]2ccccc2)([c]2ccccc2)[n]2c3ccccc3c3ccccc32)cc1`, the survivor count is, setting by setting: (T/C endpoint: mean survival time, dose: 12.5 mg/kg/injection, schedule: Q01DX009 (ip), vehicle: acetone) 0 of 6; (T/C endpoint: mean survival time, dose: 25.0 mg/kg/injection, schedule: Q01DX009 (ip), vehicle: acetone) 0 of 6; (T/C endpoint: mean survival time, dose: 50.0 mg/kg/injection, schedule: Q01DX009 (ip), vehicle: acetone) 0 of 6; under setting [7], 0 of 6; under setting [8], 0 of 6; under setting [9], 0 of 6.

As to `CN(C)N=Nc1cccc(C(N)=O)c1`, the T/C was 133 % of control (T/C endpoint: mean survival time, dose: 40.0 mg/kg/injection, schedule: Q01DX009 (ip), vehicle: Klucel (hydroxypropylcellulose) (HPC)); 128 % of control (T/C endpoint: mean survival time, dose: 80.0 mg/kg/injection, schedule: Q01DX009 (ip), vehicle: Klucel (hydroxypropylcellulose) (HPC)); 130 % of control (T/C endpoint: median survival time, dose: 23.0 mg/kg/injection, schedule: Q01DX009 (ip), vehicle: steroid suspending solution); 125 % of control (T/C endpoint: median survival time, dose: 65.0 mg/kg/injection, schedule: Q04DX003 (ip), vehicle: steroid suspending solution); 145 % of control (T/C endpoint: median survival time, dose: 108.0 mg/kg/injection, schedule: Q04DX003 (ip), vehicle: steroid suspending solution); 130 % of control (T/C endpoint: median survival time, dose: 180.0 mg/kg/injection, schedule: Q01DX001 (ip), vehicle: steroid suspending solution). Moreover, the survivor count is, setting by setting: (T/C endpoint: mean survival time, dose: 160.0 mg/kg/injection, schedule: Q01DX009 (ip), vehicle: Klucel (hydroxypropylcellulose) (HPC)) 2 of 6; (T/C endpoint: median survival time, dose: 108.0 mg/kg/injection, schedule: Q01DX009 (ip), vehicle: steroid suspending solution) 7 of 8; (T/C endpoint: median survival time, dose: 300.0 mg/kg/injection, schedule: Q01DX001 (ip), vehicle: steroid suspending solution) 7 of 8; (T/C endpoint: median survival time, dose: 500.0 mg/kg/injection, schedule: Q01DX001 (ip), vehicle: steroid suspending solution) 0 of 8.

Turning to `CC(C)N(C(=O)Nc1cccc(F)c1)C1CCCCC1`, the survivor count (T/C endpoint: mean survival time, dose: 200.0 mg/kg/injection, schedule: Q01DX009 (ip), vehicle: gum acacia) is 6 of 6.

Consider `Cc1nccn1CC(=O)c1ccccc1`, for which the survivor count (T/C endpoint: mean survival time, dose: 25.0 mg/kg/injection, schedule: Q01DX009 (ip), vehicle: Klucel (hydroxypropylcellulose) (HPC)) is on record as 6 of 6; the survivor count under setting [5] is on record as 1 of 3; the survivor count under setting [6] was 0 of 3 and 0 of 6.

As to `O=S(=O)(OCC#CCOS(=O)(=O)c1ccc(Cl)c(Cl)c1)c1ccc(Cl)c(Cl)c1`, the survivor count is, setting by setting: (T/C endpoint: mean survival time, dose: 50.0 mg/kg/injection, schedule: Q01DX009 (ip), vehicle: saline with Tween-80) 4 of 6; under setting [7], 1 of 6; under setting [8], 0 of 6; under setting [9], 0 of 6.

Regarding `CCOC(=O)c1ccc(N=NN(C)CC(C)C)cc1`, for the setting “T/C endpoint: mean survival time, dose: 400.0 mg/kg/injection, schedule: Q01DX009 (ip), vehicle: Klucel (hydroxypropylcellulose) (HPC)”, the T/C is 131 % of control.

As to `O=[N+]([O-])c1ccc(O)c(Br)c1`, the survivor count reads like this: (T/C endpoint: mean survival time, dose: 50.0 mg/kg/injection, schedule: Q01DX009 (ip), vehicle: carboxymethylcellulose (CMC)) 5 of 6; (T/C endpoint: mean survival time, dose: 100.0 mg/kg/injection, schedule: Q01DX009 (ip), vehicle: carboxymethylcellulose (CMC)) 0 of 6 and 1 of 6; (T/C endpoint: mean survival time, dose: 200.0 mg/kg/injection, schedule: Q01DX009 (ip), vehicle: carboxymethylcellulose (CMC)) 0 of 6; (T/C endpoint: mean survival time, dose: 400.0 mg/kg/injection, schedule: Q01DX009 (ip), vehicle: carboxymethylcellulose (CMC)) 0 of 6.

The record behind these values is PubChem BioAssay AID248 (DTP/NCI, 2004).
